Measurements reported in patent US20260242455A1.
Positions count from the first letter of the chain named. Names may count otherwise. Results are given in words; binding and its absence hold for the method and conditions named. Some entries that bind do so weakly or less than the wild type.

Chains of the proteins cited; added tags and fusions are not shown. Residues count along the entry.
UniProt O14793, residues 24-375: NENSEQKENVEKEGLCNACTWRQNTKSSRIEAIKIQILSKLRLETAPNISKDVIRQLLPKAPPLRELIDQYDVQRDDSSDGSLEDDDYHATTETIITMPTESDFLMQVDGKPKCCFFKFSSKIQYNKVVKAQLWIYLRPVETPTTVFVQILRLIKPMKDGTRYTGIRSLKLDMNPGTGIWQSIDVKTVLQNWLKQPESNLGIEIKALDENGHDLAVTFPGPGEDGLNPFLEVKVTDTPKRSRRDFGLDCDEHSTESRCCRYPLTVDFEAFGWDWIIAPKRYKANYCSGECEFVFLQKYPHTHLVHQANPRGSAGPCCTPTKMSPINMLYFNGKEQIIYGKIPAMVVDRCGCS

B1: Ab8 (antibody, V domains shown)
VH: QIQLVQSGAEVKKPGASVKVSCKASGYTFTSYGISWVRQAPGQGLEWMGWISAYNGNTNYAQKLQGRVTMTTDTSTSTAYMELSSLRSEDTAVYYCARVGFYDYVWGSYPYDAFDIWGQGTMVTVSS
VL: EIVMTQSPGTLSLSPGERATLSCRASQSVSSNYLAWYQQKPGQAPRLLIYDASNRATGIPARFSGSGSGTDFTLTISSLEPEDFALYYCQQYGTSPLTFGGGTKLEIKR
B2: Ab3 (affinity optimized, parental frameworks), IgG4 (S228P) (antibody, V domains shown)
VH: QIQLVQSGGGVVQPGRSLRLSCAASGFAFSSYGMHWVRQAPGKGLEWVAVISYDGSIKYYADSVKGRFTISRDNSKNTLYLQMNSLRAEDTAVYYCARDLLVRFLEWSHKYGMDVWGQGTTVTVSS
VL: QPVLTQPPSASGTPGQRVTISCSGSTSNIGSNTVHWYQQLPGTAPKLLIYSDDQRPSGVPDRFSGSKSGTSASLVISGLQSDDEADYYCAAWDESLNGVFGGGTKLTVL
B3: Ab5 (affinity optimized, parental frameworks), IgG4 (S228P) (antibody, V domains shown)
VH: B2 VH with S56N, I57N
VL: B2 VL with T26S, S31G

Tests used:
[1] = target: pro-myostatin (proGDF8), species not stated in the experiment (UniProt O14793); assay: ELISA / Octet
[2] = target: pro-myostatin (proGDF8), species not stated in the experiment (UniProt O14793); assay: Octet, compared with parental Ab1

Binder | binding [1] | binding [2]
B1 | binds | –
B2 | – | binds
B3 | – | binds
